Laboratory results: paper doi:10.1101/2025.02.10.637573 (bioRxiv, 2025)
Substitutions are numbered along the chain they refer to. Read-outs that look alike come from different tables or passages of the source. No constants are given. Whether binding was seen depends on the method and setting. A result given as binding can be weak or reduced; the word gives no strength. For part of these data: In cells and extracts the contact can be indirect.

Amino acid sequences for entries named in this document (tags omitted). A change or cut given only in a name is not applied to a line headed by its entry.
UniProt P36044: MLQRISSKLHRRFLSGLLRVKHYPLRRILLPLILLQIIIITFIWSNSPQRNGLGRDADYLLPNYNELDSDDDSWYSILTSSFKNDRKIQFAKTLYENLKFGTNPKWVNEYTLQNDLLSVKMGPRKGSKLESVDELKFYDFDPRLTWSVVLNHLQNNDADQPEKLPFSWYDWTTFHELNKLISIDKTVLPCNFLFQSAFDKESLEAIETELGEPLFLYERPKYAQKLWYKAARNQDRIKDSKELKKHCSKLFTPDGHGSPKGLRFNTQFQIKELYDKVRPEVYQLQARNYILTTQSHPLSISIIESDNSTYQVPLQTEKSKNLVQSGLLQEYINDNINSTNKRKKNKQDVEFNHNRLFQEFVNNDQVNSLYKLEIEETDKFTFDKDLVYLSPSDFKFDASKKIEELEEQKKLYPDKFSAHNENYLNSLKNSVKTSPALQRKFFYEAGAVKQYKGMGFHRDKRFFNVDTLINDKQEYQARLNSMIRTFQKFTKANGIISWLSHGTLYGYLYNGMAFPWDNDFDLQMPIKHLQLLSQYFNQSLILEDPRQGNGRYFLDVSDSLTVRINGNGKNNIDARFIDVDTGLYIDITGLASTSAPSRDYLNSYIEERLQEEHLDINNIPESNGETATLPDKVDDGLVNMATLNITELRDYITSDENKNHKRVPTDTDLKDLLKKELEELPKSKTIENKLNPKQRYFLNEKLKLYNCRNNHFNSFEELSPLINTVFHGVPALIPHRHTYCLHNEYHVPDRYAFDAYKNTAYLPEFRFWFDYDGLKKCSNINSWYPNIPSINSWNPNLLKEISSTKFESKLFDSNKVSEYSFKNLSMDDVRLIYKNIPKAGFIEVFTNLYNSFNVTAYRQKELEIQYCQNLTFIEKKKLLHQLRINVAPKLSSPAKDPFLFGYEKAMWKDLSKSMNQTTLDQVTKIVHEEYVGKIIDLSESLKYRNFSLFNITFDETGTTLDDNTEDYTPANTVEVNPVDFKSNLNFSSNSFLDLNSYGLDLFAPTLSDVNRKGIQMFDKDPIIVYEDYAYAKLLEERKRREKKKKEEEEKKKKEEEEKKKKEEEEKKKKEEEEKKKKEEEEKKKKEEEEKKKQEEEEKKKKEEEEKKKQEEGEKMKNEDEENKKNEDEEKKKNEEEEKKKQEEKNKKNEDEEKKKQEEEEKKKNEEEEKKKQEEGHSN
UniProt P32368: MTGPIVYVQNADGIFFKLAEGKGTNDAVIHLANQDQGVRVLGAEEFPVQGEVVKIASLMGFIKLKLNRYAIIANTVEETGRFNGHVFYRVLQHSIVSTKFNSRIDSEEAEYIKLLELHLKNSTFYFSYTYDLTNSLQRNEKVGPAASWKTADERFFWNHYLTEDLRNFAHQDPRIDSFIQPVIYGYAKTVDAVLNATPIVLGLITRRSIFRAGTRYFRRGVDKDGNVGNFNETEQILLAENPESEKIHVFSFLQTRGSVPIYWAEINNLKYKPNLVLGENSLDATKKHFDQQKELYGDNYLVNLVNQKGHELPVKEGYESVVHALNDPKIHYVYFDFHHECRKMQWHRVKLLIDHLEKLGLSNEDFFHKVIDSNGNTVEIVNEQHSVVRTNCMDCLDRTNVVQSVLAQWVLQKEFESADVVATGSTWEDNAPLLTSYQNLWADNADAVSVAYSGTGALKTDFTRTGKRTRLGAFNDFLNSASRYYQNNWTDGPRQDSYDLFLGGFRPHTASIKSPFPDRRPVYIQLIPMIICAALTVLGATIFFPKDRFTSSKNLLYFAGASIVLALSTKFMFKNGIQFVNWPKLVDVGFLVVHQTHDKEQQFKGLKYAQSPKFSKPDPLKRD

Assays:
Assay in all cases: pull-down
[1] = biological target: Twin-Strep-Vps74 (yeast, UniProt Q06385)
[2] = biological target: T1, Vps74 (bacterially expressed, as used in the in vitro mixing assays) (yeast) (UniProt Q06385)
T1 sequence: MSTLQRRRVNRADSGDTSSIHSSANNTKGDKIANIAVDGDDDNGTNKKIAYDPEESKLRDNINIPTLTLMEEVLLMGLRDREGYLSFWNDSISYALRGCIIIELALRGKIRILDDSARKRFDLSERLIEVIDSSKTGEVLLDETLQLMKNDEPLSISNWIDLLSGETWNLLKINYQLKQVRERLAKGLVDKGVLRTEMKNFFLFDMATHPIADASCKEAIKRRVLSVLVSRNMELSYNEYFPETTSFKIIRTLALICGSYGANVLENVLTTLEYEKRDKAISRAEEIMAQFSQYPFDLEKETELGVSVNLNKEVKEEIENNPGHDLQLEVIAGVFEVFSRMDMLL

[3] = biological target: T2, Vps74 K178A R181A (yeast) (UniProt Q06385)
T2 sequence: T1 sequence with K178A, R181A

[4] = biological target: T3, Vps74 R97A (yeast) (UniProt Q06385)
T3 sequence: T1 sequence with R97A

Measured: binding

N-terminus of Mnn4 (from UniProt P36044) (domain or fragment)
binds: [1] | [1]; record 2 | [2] | [3] | [4]

soluble domain of Sac1 (from UniProt P32368) (domain or fragment)
binds: [1]
